From PubChem BioAssay AID624291 (National Center for Advancing Translational Sciences (NCATS), 2012)
Among all 350,000 compounds or so, about 220 (0.063%) were called active. This list was built around the results that the source calls inconclusive (neither active nor inactive); the mix of calls is not that of the screen. The call rests on the fitted dose curve; in most records, active means well fitted activation curve with a large enough effect; inconclusive means small, poorly fitted or top-dose-only effect; inactive means no such curve, though single readings can be large or run the other way. Potencies of inconclusive entries are doubtful fits and often do not repeat.

Experiment: qHTS for Activators of Integrin-Mediated Alleviation for Muscular Dystrophy; further: nearly all actives have a fitted effect of over 60% in size;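 on activation: 100% = response of the positive control SU9516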
Conditions: alpha7betagal myoblasts, beta-gal FDG fluorescence, 48 h; activation: at 38.3 µM (top of the series)
Outline: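 alpha7betagal+/- myoblasts (passage 13, 250/well) treated 48 h at 37C with compounds at 1:260 dilution of DMSO stock. Lysed, then beta-galactosidase activity read as FDG fluorescence (ex 480/em 540) after 30 min, with pre-read for autofluorescence.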
Potency means the concentration at half of the fitted maximal effect.

Structure (SMILES)	Potency	activation
Cc1ccccc1NC(=O)CC1C(=O)NCCN1C(=O)c1cccc(Cl)c1 (configuration not stated)	inconclusive: 5.01 µM [activator, single point]	–
COC(=O)[C@@H]1Cc2c([nH]c3ccccc23)C2CCC(=O)N21 (some centres not stated)	inconclusive: 3.98 µM [activator, partial curve, poor fit]	–
O=C(CS(=O)c1ccccc1[N+](=O)[O-])Oc1ccc(Br)cc1 (configuration not stated)	inconclusive: 5.01 µM [activator, single point]	–
Clc1ccc(-c2csc(=Nc3cccnc3)n2CCCn2ccnc2)cc1Cl	inconclusive: 20 µM [activator, single point]	–
COC(=O)c1sc(NC(=S)NC(=O)c2ccccc2F)nc1C	inconclusive: 3.16 µM [activator, partial curve, poor fit]	–
CN1CCN(NC(=O)c2ccccc2F)CC1	inactive	–
COc1cc(C(=O)NC(=S)Nc2nccs2)cc(OC)c1OC	inactive	–
CCOc1ccc(NC(=O)NCC2CCN(Cc3ccc(F)cc3)CC2)cc1	inconclusive: 1.78 µM [activator, partial curve, poor fit]	–
O=C(CCNC(=O)N1CC(=O)Nc2ccccc21)NCc1ccc(F)cc1	inconclusive: 7.08 µM [activator, partial curve, poor fit]	–
O=C1c2ccccc2C(=O)N1c1ccc(S(=O)(=O)N2CCCCC2)cc1	inconclusive: 28.2 µM [activator, single point]	–
O=S(=O)(c1cccc(Br)c1)N1CCN(c2ncnc3scc(-c4ccccc4)c23)CC1	inconclusive: 3.16 µM [activator, single point]	–
COc1ccc(C(=O)NCC2CCCCC2)cc1S(=O)(=O)N1CCCC1	inconclusive: 11.2 µM [activator, partial curve, poor fit]	–
O=C(Nc1nnc(-c2ccco2)s1)C1CC1	inconclusive: 2.51 µM [activator, full curve]	–
CCCn1c2ccc(C)cc2c2n[nH]c(=S)nc21	inconclusive: 2.82 µM [activator, partial curve, poor fit]	–
O=C(NCC1CCCO1)c1ccc(F)c2ccccc12 (configuration not stated)	inconclusive: 5.01 µM [activator, single point]	–
CCC(CC)C(=O)NCCc1ccc(F)cc1	inactive	–
COc1ccc(OCC(O)CN2CCN(Cc3ccc4c(c3)OCO4)CC2)cc1 (configuration not stated)	inactive	–
c1ccc(CNc2cncnc2)cc1	inconclusive: 28.2 µM [activator, single point]	–
C#CCOc1ccc(C2C3=C(CC(C)(C)CC3=O)N(CC(=O)O)C3=C2C(=O)CC(C)(C)C3)cc1	inconclusive: 5.01 µM [activator, single point]	–
Cc1ccc(S(=O)(=O)NCCC(=O)NC2CCCCCC2)cc1	inconclusive: 10 µM [activator, single point]	–
COc1cc(OC)c(NS(=O)(=O)c2cccc(C(=O)OCC(=O)NCC3CCCO3)c2)cc1Cl (configuration not stated)	inconclusive: 1.26 µM [activator, partial curve, poor fit]	–

Structure (SMILES)	Potency	activation
CCOc1cccc(-c2cc(C(=O)N/N=C/c3ccc(OC)c(CN4CCOCC4)c3)c3ccccc3n2)c1	inactive	–
CCc1ccc(CCC(=O)Nc2ccc(Br)cc2)o1	inconclusive: 12.6 µM [activator, single point]	–
CCCCOc1cccc(/C=C(\C#N)C(=O)NC2CC2)c1	inconclusive: 2.24 µM [activator, full curve, poor fit]	–
CC(c1ccccc1)n1c(N2CCNCC2)nc2c1c(=O)[nH]c(=O)n2C (configuration not stated)	inconclusive: 17.8 µM [activator, single point]	–
Cc1cc(/C=N/NC(=O)Cn2c3ccccc3c(=O)c3ccccc32)c(C)n1-c1ccc(Cl)cc1	inactive	–
COc1ccc(-c2cc(C(=O)N3CCN(c4ncccn4)CC3)c3ccccc3n2)cc1	inconclusive: 1.78 µM [activator, full curve, poor fit]	–
Cc1ccc(C(=O)N2CCN(c3ccc(NC(=O)c4ccc5c(c4)OCCO5)cc3)CC2)cc1	inactive	–
N#CCCn1c(O)c(N=NC(=O)CNC(=O)c2cccs2)c2ccccc21	inconclusive: 28.2 µM [activator, single point]	–
Cn1cc(CN2CCC(C(=O)Nc3cccc(-c4cscn4)c3)CC2)cn1	inconclusive: 4.47 µM [activator, full curve]	–
CC(NC(=O)c1ccc(N)cc1)c1ccccc1 (configuration not stated)	inconclusive: 1.58 µM [activator, single point]	–
CCOC(=O)c1[nH]c2ccc(F)cc2c1NC(=O)CN1CCN(C/C=C/c2ccccc2)CC1	inactive	–
COC(=O)C1=C(O)/C(=C\c2cc(C)n(-c3ccc(F)cc3)c2C)N=C1C	inconclusive: 28.2 µM [activator, single point]	–
CCC(=O)N1CCN(c2ccc(NC(=O)c3ccc([N+](=O)[O-])o3)cc2Cl)CC1	–	inconclusive: -71.2% [activator]
Cc1ccc(NC(=O)Cn2c(=O)c(C)nc3ccccc32)cc1	inconclusive: 2.82 µM [activator, full curve, poor fit]	–
COc1nc(Nc2ccccc2F)nc(OC)n1	inconclusive: 0.501 µM [activator, full curve, poor fit]	–
COc1ccc(NC(=O)Cn2nnc(C(=O)Nc3ccc(F)c(Cl)c3)c2N)cc1	inconclusive: 0.501 µM [activator, full curve, poor fit]	–
O=S1(=O)N=C(N(CCO)/N=C/c2ccncc2)c2ccccc21	inconclusive: 0.447 µM [activator, full curve, poor fit]	–
N#CC1=C(N)Oc2c(ccc3cccnc23)C1c1cccnc1 (configuration not stated)	inactive	–
O=C(CC1CCCC1)N1CCN(S(=O)(=O)c2ccccc2)CC1	inconclusive: 5.01 µM [activator, single point]	–
O=C(CNC(=O)c1cccnc1)N/N=C/c1cc(Br)c(O)c(Br)c1	inconclusive: 2.51 µM [activator, full curve, poor fit]	–
COc1ccccc1Cn1c(CO)nc2ccccc21	inconclusive: 6.31 µM [activator, partial curve, poor fit]	–

Entries listed so far containing an aryl methoxy group, in the order listed:
Structure (SMILES)	Potency	activation
COc1cc(C(=O)NC(=S)Nc2nccs2)cc(OC)c1OC	inactive	–
COc1ccc(C(=O)NCC2CCCCC2)cc1S(=O)(=O)N1CCCC1	inconclusive: 11.2 µM [activator, partial curve, poor fit]	–
COc1ccc(OCC(O)CN2CCN(Cc3ccc4c(c3)OCO4)CC2)cc1 (configuration not stated)	inactive	–
COc1cc(OC)c(NS(=O)(=O)c2cccc(C(=O)OCC(=O)NCC3CCCO3)c2)cc1Cl (configuration not stated)	inconclusive: 1.26 µM [activator, partial curve, poor fit]	–
CCOc1cccc(-c2cc(C(=O)N/N=C/c3ccc(OC)c(CN4CCOCC4)c3)c3ccccc3n2)c1	inactive	–
COc1ccc(-c2cc(C(=O)N3CCN(c4ncccn4)CC3)c3ccccc3n2)cc1	inconclusive: 1.78 µM [activator, full curve, poor fit]	–
COc1nc(Nc2ccccc2F)nc(OC)n1	inconclusive: 0.501 µM [activator, full curve, poor fit]	–
COc1ccc(NC(=O)Cn2nnc(C(=O)Nc3ccc(F)c(Cl)c3)c2N)cc1	inconclusive: 0.501 µM [activator, full curve, poor fit]	–
COc1ccccc1Cn1c(CO)nc2ccccc21	inconclusive: 6.31 µM [activator, partial curve, poor fit]	–
